These are yes or no findings as the source states them, for the method shown. Binding seen in cells or lysates may run through a third protein. Some entries that bind do so weakly or less than the wild type.

The chains behind the UniProt entries cited, without tags or fusion partners.
UniProt P51587: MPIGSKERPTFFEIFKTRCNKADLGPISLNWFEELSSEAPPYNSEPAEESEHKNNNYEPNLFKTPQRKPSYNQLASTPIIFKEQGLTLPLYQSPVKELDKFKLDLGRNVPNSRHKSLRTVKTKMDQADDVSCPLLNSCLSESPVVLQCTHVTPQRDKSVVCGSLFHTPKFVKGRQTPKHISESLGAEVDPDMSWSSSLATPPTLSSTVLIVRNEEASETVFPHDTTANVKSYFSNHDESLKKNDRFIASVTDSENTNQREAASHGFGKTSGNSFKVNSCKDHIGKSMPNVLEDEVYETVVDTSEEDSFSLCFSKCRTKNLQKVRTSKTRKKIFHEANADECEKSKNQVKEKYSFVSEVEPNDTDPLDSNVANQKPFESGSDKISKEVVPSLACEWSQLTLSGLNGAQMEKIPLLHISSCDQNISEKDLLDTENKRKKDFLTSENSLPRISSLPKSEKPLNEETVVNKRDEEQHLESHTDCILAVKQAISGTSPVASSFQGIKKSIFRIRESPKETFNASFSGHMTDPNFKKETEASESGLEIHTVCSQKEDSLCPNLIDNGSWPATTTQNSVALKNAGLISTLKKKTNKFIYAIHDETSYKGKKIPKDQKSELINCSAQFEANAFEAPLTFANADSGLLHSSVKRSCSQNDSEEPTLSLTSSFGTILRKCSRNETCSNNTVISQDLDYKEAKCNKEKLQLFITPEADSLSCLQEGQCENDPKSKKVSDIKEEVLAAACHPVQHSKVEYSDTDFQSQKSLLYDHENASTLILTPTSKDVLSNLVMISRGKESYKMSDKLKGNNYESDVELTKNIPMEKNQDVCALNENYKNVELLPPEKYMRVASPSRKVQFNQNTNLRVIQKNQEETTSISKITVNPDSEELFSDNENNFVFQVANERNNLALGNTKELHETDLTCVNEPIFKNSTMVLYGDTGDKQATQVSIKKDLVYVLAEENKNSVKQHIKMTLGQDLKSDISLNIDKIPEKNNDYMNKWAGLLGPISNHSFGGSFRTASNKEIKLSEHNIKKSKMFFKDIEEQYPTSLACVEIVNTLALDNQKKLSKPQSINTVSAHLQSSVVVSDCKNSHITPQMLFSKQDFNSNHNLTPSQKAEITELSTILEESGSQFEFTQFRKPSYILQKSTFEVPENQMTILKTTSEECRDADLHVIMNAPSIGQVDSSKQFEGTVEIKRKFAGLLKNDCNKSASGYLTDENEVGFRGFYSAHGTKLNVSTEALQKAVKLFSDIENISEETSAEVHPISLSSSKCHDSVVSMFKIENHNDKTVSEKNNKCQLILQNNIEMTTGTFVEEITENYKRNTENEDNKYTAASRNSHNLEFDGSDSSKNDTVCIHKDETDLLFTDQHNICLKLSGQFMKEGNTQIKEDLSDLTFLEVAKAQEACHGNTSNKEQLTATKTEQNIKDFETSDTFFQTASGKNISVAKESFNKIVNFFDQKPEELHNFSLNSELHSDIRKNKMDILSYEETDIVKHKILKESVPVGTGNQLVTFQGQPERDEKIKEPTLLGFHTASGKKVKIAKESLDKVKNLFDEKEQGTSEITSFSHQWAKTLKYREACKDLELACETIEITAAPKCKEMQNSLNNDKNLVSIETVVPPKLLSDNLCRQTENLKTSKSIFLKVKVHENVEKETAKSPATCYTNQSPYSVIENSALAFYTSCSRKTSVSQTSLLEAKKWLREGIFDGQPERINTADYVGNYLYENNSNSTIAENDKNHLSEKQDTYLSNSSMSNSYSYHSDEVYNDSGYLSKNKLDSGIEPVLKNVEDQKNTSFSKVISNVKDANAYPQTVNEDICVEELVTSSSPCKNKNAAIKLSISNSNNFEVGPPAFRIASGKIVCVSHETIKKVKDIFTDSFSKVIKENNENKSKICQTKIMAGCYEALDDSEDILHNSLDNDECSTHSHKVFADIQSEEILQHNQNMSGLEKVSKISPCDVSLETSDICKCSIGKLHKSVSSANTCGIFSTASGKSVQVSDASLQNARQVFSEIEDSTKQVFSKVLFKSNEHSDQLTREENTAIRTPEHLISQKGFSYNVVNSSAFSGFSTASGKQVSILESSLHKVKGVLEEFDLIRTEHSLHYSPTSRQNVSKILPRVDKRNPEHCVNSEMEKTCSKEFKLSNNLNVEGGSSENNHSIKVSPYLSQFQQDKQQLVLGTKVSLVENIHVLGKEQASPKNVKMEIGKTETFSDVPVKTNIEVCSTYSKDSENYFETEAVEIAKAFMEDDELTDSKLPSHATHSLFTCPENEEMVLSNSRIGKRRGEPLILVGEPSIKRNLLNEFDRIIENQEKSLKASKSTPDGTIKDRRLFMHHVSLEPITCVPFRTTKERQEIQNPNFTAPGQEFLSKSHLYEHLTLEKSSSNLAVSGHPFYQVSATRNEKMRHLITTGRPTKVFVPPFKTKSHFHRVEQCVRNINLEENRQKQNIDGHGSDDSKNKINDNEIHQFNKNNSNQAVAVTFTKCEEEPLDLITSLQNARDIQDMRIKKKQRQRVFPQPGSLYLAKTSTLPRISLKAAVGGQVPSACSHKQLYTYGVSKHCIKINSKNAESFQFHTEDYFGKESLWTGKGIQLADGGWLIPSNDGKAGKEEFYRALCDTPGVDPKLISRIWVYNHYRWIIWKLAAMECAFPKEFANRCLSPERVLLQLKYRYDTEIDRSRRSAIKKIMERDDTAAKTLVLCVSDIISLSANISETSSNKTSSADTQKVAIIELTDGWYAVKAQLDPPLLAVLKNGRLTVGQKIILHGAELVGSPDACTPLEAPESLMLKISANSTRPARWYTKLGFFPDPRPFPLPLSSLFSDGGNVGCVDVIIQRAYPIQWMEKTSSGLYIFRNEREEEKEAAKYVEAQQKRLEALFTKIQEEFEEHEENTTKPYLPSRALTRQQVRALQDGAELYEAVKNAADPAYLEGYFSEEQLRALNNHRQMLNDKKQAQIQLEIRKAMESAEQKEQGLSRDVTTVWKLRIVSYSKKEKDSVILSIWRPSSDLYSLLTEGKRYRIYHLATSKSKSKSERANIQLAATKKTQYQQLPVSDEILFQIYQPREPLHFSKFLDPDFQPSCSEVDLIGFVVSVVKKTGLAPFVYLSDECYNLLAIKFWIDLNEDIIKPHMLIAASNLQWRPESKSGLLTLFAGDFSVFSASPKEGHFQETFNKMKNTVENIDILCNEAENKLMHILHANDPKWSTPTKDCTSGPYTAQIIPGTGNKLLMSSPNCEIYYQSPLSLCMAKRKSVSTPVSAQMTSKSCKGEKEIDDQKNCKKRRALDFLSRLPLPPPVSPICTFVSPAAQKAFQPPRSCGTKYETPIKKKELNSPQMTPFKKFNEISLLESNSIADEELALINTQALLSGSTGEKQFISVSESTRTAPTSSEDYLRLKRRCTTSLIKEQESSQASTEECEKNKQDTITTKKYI
UniProt O60566: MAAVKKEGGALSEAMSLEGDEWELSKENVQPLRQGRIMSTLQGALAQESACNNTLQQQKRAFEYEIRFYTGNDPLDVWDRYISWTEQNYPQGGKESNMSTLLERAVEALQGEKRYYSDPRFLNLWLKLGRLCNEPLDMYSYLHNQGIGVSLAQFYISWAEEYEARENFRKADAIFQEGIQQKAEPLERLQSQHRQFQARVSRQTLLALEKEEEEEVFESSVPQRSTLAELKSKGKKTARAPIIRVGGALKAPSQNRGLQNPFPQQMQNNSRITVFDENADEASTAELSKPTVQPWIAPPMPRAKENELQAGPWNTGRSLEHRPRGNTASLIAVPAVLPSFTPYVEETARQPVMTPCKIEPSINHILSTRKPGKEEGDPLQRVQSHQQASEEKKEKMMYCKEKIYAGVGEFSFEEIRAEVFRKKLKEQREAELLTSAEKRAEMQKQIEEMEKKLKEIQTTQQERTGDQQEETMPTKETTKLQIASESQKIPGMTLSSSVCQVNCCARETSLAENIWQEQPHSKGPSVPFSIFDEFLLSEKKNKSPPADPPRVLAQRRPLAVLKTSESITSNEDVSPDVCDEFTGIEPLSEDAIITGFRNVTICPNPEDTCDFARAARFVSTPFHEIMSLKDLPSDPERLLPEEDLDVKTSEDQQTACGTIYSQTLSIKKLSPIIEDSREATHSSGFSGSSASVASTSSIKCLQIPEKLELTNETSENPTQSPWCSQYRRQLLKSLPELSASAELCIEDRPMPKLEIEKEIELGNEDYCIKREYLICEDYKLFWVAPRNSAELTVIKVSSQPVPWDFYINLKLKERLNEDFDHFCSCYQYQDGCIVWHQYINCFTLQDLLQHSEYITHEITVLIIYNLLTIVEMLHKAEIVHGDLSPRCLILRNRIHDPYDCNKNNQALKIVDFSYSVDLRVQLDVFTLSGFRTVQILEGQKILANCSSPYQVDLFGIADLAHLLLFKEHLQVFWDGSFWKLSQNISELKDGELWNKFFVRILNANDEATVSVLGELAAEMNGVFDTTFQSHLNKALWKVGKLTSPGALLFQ

Binding data for three substances are collected here from paper PMC7156385, “Proper chromosome alignment depends on BRCA2 phosphorylation by PLK1” (Nature Communications, 2020).

For assay [1], the target named is EGFP-MBP-BRCA2 WT (full-length) (human) (UniProt P51587). The assay is described as follows: pull-down; GFP-TRAP beads pull-down of EGFP-MBP-BRCA2 from lysates of nocodazole-arrested DLD1 BRCA2-/- stable clones (also after incubation of the cells with the PLK inhibitor BTO); extraction buffer A, 2 h at 4 °C, washes up to 500 mM NaCl; western blot.
Assay [2] addresses endogenous BUBR1 (human (endogenous in DLD1)) (UniProt O60566). The assay is described as follows: co-IP; immunoprecipitation of endogenous BUBR1 with mouse anti-BUBR1 antibody from nocodazole-treated DLD1 BRCA2-/- stable clones expressing BRCA2 WT or variants; extraction buffer A, washes up to 500 mM NaCl; western blot for PP2A-C and PLK1. Background: Immunoblotting shows a protein as a band on a membrane.

Regarding “endogenous BUBR1 (from UniProt O60566 1-1050)”, the binding entry in assay [1] is recorded as “binds”.
Take “endogenous PLK1 (DLD1 cells) (from UniProt P53350 1-603) (enzyme)”: the binding entry in assay [2] is recorded as “binds”.
For “pT680-BUBR1 (from UniProt O60566 1-1050)”, in assay [1], the binding entry is “binds”.
